Test results reported in article PMC5399304.
No constants are given. Whether binding was seen depends on the method and setting. Binding seen in cells or lysates may run through a third protein. Some binding calls cover weakened binding; strength is not graded here.

By UniProt entry, the sequences of proteins in these tests, tags left out.
UniProt Q6R327: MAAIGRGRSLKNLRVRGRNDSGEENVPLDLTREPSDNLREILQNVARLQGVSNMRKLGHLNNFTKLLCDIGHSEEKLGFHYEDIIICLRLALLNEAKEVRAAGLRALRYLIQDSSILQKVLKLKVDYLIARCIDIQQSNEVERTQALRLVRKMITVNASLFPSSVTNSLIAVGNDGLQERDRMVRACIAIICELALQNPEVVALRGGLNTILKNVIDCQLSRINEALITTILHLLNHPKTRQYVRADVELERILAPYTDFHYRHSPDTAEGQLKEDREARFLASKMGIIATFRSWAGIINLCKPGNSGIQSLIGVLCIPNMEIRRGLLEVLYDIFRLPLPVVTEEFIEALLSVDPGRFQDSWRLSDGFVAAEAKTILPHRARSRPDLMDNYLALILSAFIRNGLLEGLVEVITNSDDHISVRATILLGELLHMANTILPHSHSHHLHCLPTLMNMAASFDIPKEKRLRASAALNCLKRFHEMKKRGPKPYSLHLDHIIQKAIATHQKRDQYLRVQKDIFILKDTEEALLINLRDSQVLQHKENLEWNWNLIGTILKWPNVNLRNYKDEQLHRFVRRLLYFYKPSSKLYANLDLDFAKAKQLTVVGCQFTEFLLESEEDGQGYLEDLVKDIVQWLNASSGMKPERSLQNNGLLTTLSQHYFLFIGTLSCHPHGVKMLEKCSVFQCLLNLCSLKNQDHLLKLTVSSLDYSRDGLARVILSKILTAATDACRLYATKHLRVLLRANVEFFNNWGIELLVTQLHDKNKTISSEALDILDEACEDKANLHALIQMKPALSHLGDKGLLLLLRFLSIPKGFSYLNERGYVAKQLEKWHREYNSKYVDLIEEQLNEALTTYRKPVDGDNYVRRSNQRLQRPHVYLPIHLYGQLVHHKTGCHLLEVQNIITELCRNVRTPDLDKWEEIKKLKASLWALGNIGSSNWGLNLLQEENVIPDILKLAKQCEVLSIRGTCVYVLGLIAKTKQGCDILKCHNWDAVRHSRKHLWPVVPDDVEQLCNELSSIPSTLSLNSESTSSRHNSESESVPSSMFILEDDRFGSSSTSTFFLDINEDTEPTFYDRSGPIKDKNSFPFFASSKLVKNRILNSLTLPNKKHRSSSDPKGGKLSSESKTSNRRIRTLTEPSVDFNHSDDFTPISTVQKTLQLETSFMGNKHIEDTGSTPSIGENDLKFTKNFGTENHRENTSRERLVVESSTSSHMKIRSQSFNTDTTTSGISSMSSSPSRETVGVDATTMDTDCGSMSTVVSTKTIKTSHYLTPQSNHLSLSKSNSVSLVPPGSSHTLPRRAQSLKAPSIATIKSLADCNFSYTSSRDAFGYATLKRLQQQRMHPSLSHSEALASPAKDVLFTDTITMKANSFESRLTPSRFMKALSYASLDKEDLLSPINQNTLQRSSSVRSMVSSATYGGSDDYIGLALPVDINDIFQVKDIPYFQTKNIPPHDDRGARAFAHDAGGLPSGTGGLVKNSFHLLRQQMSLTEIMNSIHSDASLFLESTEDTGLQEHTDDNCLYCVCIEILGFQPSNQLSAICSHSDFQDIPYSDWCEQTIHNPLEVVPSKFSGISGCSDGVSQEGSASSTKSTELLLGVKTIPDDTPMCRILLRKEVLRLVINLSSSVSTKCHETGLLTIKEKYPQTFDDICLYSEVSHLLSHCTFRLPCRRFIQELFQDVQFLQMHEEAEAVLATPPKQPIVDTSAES
UniProt Q13418: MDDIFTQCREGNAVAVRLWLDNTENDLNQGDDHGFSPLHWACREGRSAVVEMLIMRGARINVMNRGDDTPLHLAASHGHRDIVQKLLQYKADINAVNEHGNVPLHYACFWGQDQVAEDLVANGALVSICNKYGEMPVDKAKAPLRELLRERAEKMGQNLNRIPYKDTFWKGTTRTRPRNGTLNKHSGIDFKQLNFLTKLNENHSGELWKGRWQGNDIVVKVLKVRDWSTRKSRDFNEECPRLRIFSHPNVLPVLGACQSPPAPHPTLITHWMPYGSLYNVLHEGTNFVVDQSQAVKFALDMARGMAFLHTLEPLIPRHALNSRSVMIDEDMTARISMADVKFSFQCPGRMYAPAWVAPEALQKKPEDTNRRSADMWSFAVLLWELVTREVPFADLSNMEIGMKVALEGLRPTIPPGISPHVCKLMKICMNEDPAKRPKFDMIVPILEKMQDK

Tests used:
[1] = target: rictor (human (endogenous in Jeko-1 and HBL-2)) (UniProt Q6R327); assay: co-IP; endogenous proteins from lysates of Jeko-1-IR and HBL-2-IR cells (and their parental Sen cells), without treatment; IR cells also after ibrutinib treatment; detected by western blot
[2] = target: rictor (human (endogenous in Jeko-1 and HBL-2)) (UniProt Q6R327); assay: condition: only parental (Sen) cells after ibrutinib treatment; co-IP; endogenous proteins from lysates of parental (Sen) Jeko-1 and HBL-2 cells after ibrutinib treatment; detected by western blot

integrin-linked kinase (from UniProt Q13418 1-452)
binding [1]: binds | binding [2]: no binding
